Assay results published in patent US20250276082A1 (INNOLAKE BIOPHARMA HANGZHOU, published 2025).
Results are given in words; binding and its absence hold for the method and conditions named. Some results given as binding are weak or reduced against the parent protein; the word gives no strength.

T1: B7H3-hFc (UniProt Q5ZPR3 29-466, limits assumed)
T1 construct: Construct limits, linker and Fc not described; also called B7H3-hFc protein; not shown: human Fc (hFc)
T1 sequence (looked up): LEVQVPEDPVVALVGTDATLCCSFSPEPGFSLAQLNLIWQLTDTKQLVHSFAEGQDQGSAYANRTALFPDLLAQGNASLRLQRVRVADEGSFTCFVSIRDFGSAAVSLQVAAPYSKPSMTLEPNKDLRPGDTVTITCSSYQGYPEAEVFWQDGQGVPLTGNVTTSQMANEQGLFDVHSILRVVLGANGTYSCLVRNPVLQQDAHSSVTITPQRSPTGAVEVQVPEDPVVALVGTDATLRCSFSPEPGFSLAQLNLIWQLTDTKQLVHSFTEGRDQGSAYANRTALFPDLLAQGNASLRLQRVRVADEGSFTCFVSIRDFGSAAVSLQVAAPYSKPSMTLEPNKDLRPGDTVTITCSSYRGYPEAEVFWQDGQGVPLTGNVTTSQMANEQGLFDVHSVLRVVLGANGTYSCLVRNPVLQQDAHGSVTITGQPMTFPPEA


molecular target: T1, B7H3-hFc; test: ELISA, B7H3-hFc

Row | binding | Binder
1 | binds | 13A2 (antibody, mouse IgG2b, V domains shown, Murine hybridoma antibody; also called B7H3 hybridoma monoclonal antibody 13A2) VH: EVQLQQSGPELVKPGASVKISCKTSGYTFTEYVMHWVKQRHGQSLEWIGGINPNTGGTTYNQKFEGKATLTVDKSSSSAYMEFRSLTSEDSAVYYCARRMPFGISAMDYWGQGTSVTVSS VL: QIVLTQSPAIMSASPGEKVTMTCSASSSVSYIHWFQQKSGTSPKRWISETSKLASGVPARFSGSGSGTSYSLTISSMGAEDAATYYCHQWISYPPTFGAGTKLELK
2 | binds | 15A2 (antibody, mouse IgG1, V domains shown, Murine hybridoma antibody; also called B7H3 hybridoma monoclonal antibody 15A2) VH: QVQLQQSGPEVVKPGALVRISCKASGYTFTSYDINWVKQRPGQGLEWIGWIDPGDGSTKYNEKFKGKATLTADKSSSTAYMQFSSLTSENSAVYFCVRRGFDYWGQGTTLTVSS VL: QILLTQSPAIMSASPGEKVTMTCRTSSSVSYLHWFQQKPGSSPKLWIHDTSNLASGFPARFSGSGSGTSYSLIISSMEAEDAATYYCHQRSSYPWTFGGGTKLEIK
3 | binds | 9C8 (antibody, mouse IgG1, V domains shown, Murine hybridoma antibody; also called B7H3 hybridoma monoclonal antibody 9C8) VH: EVQLQQSGPELVKPGASVKISCKTSGYTFTEYTIHWVKQSHGKSLEWIGGINPNSGGTTYNLKFKGKATLTVDKSSSTVYMELRSLTSEDSAVYYCARKEGFFTTDYWGQGTTLTVSS VL: QTVLTQSPAIMSASPGEKVTMTCSASSSLSYIHWYRQKSGTSPKRWIYDTSNLATGVPVRFSGSGSGTSYSLTISSMEAEDAATYYCQQWHYNPPTFGGGTKLEIK
4 | binds | 14B3 (antibody, mouse IgG1, V domains shown, Murine hybridoma antibody; also called B7H3 hybridoma monoclonal antibody 14B3) VH: QVQLQQSGPELVRPGVSVKISCKGSGYTFTDHAIHWVKQSHAKSLEWIGVINTYSGNTNFNQKLKGKATMTVDKSSSTAYMELARLTSEDSAIYYCARGAHSSGYPYWYFDVWGAGTTVTVSS VL: QIVLSQSPAILSASAGEKVTMTCRASSSVSYMHWYQQKPGSSPKPWIYATSNLASGVPARFSGSGSGTSYSLTISRVEAEDAATYYCQQWSTNPFTFGSGTKLEMK

Second part, the binder before the results:

Row | Binder | binding
5 | 5B6 (antibody, mouse IgG1, V domains shown, Murine hybridoma antibody; also called B7H3 hybridoma monoclonal antibody 5B6) VH: QVQLQQSGAELARPGASVKMSCKTSGYTFITYTIHWVKQRPGQGLEWIGYINPTSDYANFNQKFKDKATLTADKSSRTAYMQLSSLTSEDSAVYYCARWGTTVFQFYFDYWGQGTTLTVSS VL: QIVLSQSPAILSASPGEKVTMTCRASQSLSYINWYQLKPGSSPKPWIYATSSLQSGVPARFSGSASGTSYSLTISRVEAEDAATYFCQHWSSDPPTIGGGTKLEIK | binds
6 | 2A9 (antibody, mouse IgG2b, V domains shown, Murine hybridoma antibody; also called B7H3 hybridoma monoclonal antibody 2A9) VH: EVQLQQSGPELVKPGASVKISCKTSGYTFTEYIMHWVKQSRGKSLEWIGGINPNSGGTTYNEKFKGKATLTVDKSASTAYMELRSLTSEDSAIYYCARRMPYWYFDVWGAGTTVTVSS VL: QIVLTQSPAIMSASPGEKVTMTCSASSSVSYIHWYRQKSGTSPKRWVYDTSKLASGVPARFSGSGSGTSYSLTISSMEAEDAATYYCQQWVSNPLTFGAGTKLELK | binds
7 | 7F5 (antibody, mouse IgG1, V domains shown, Murine hybridoma antibody purified by protein A; also called B7H3 hybridoma monoclonal antibody 7F5) VH: EVQLQQSGAELVRPGALVKLSCKTSGFNIKAYYIHWVKQRPEQGLEWIGWIDPENGNTFYDPKFQGKASITADTSSNTAYLQLSSLTSEDAAVYYCTRSSTRLRPFDYWGQGTTLTVSS VL: DIVMTQAAFSNPVTLGTSASISCRSSKSLLHSNGITYLYWYLQKSGQSPQLLIYQMSNLASGVPDRFSSSGSGTDFTLRISRVEAEDVGVYYCAQNLELYTFGGGTKLEIK | binds
8 | 7C9 (antibody, mouse IgG1, V domains shown, Murine hybridoma antibody; also called B7H3 hybridoma monoclonal antibody 7C9) VH: EVQLQQSGTELVRPGALVKLSCKASALNIKDFYMHWVKQRPERGLEWIGWIDPDNGNTIYDPKFQGKASITADISSSTAYLQLSSLTSEDTAVYYCARSSTRQRPFDYWGQGTTLTVSS VL: DIVMTQSHKVMSTSVGDRVSITCKASQDVRTGVAWYQQKPGQSPKLLIYSAFYRYTGVPDRFTVSGSGADFTFTITSVQAEDLAVYYCQQYYSIPWTFGGGTKLEIK | binds
9 | 2F7 (antibody, mouse IgG2b, V domains shown, Murine hybridoma antibody; also called B7H3 hybridoma monoclonal antibody 2F7) VH: QVQLQQPGAELVKPGASVKLSCKASGYTFTSYYIYWLKQRPGQGLEWIGGIKPSNGDTNFNAKFMNKATLTVDKSSSTAYMQLSSLTSEDSAIYYCTRFFYGSPYDFDVWGAGTTVTVSS VL: NIVMTQSPKSMSMAVGERVTLTCKASENVDTHVSWYQQKPEQSPTLLMYGTSNRFTGVPDRFTGSGSATDFTLTISSVQAEDLADYHCGQSYRYPYTFGGGTKLEIK | binds
10 | 7B7 (antibody, mouse IgG2b, V domains shown, Murine hybridoma antibody; also called B7H3 hybridoma monoclonal antibody 7B7) VH: EVKLVESGGGLVRPGGSLKLSCAASGFTFSSYAVSWVRQTPEKRLEWVASISGGGIYIYYPDSVKGRFTISRDNAKNNLYLQMNSLTPDDTALYYCARHGGAGYFDYWGQGTTLTVSS VL: DSLMTQSPASLSASVGETVTITCRGSESVHSYLAWYQQKQGKSPQLLVYNAKTLQSGVPSRFSGSGSGTQFSLRINSLQPEDFGTYYCQQHYGSPPWTFGGGTILEIK | binds
11 | 2E10 (antibody, mouse IgG2a, V domains shown, Murine hybridoma antibody; also called B7H3 hybridoma monoclonal antibody 2E10) VH: EVQLQQSGPELVKPGASVKISCKTSGYTFTEYTMHWVKQSHGKNLEWIGGINTDNGGTTYSQKFKDKATLTVDRSSSTAYMVLRSLTSEDSAVYYCARSFNNYGPAWFAYWGQGALVTVSA VL: DIVMTQSHKFMSTSIGDRVSITCKASQDVRSAVAWYQQRPGQSPKLLIYWASTRHTGVPARFTGSGSGTDYTLTINNVQSEDLAGYFCQQYSSYFTFGGGTKLEKK | binds
12 | 7E6 (antibody, mouse IgG1, V domains shown, Murine hybridoma antibody; also called B7H3 hybridoma monoclonal antibody 7E6) VH: QVQLQQSGPELVRPGVSVKISCKGSGYTFTDYAMHWVKQSHAKSLEWIGVINSYYGNTHYNQKFKGKATMTVDKSSSTAYMELARLTSEDSAIYYCARAGGYSYGSSYRPDRFAYWGQGTLVIVSA VL: DIQMTQSPASQSASLGESVTITCLASQTIGTWLAWYQQKPGKSPQLLIYAATNLADGVPSRFSGSGSGTKFSFKISSLQAEDFVSYYCQQLYSTPYTFGGGTKLEIK | binds
